Test results from US20210338751A1.

B1: Nano94-TxnA (VHH)
VHH: QVQLQESGGGLVQAGGSLRLSCAASGRMFSINSMGWYRQAPGKERELVATISEAGTTTYADSVRGRFTIARDNAKNTVYLQMNSLNPEDTAVYYCNAYIQLDSTIWFRAYWGQGTQVTVSS
B2: Nano94-MBP (VHH)
VHH: B1 VHH
B3: Nano94 (no chaperone partner) (VHH)
VHH: B1 VHH

Columns and labels:
[1] = molecular target: recombinant HuNoV GI.3 P domain (Human Norovirus (HuNoV) GI.3); test: ELISA on recombinant GI.3 P domain
[2] = molecular target: recombinant HuNoV GI.1 P domain (Human Norovirus (HuNoV) GI.1); test: ELISA on recombinant GI.1 P domain
[3] = molecular target: recombinant HuNoV GI.1 P domain (Human Norovirus (HuNoV) GI.1); test: ELISA, Ni-NTA purified VHH from Spirulina
[4] = molecular target: recombinant HuNoV GI.1 P domain (Human Norovirus (HuNoV) GI.1); test: ELISA, Ni-NTA purified protein, lyophilized against stored at 4 C
[5] = molecular target: recombinant HuNoV GI.1 P domain (Human Norovirus (HuNoV) GI.1); test: ELISA on recombinant GI.1 P domain, normalized absorbance 450 nm against log concentration (M); EC50 printed in Table 5 of the text
[6] = molecular target: recombinant HuNoV GI.1 P domain (Human Norovirus (HuNoV) GI.1); test: ELISA on GI.1 P domain (P1), Ni-NTA purified Spirulina-expressed VHH, dilution series from 20 µg/ml; concentrations not given
[7] = molecular target: GI.1 VLPs (human norovirus genotype GI.1); test: blocking assay: GI.1 VLPs (1 ug/ml) pre-incubated with the sample, binding to plate-coated pig gastric mucin (HBGA) detected with biotinylated nanobody NB60

Binder | binding [1] | binding [2] | binding [3] | binding [4] | binding [5] | binding [6] | binding [7]
B1 | no binding | binds | binds | binds | binds | binds | binds
B2 |  |  | binds |  |  | binds | binds
B3 |  |  | binds | binds |  | binds | 

Results are given in words; binding and its absence hold for the method and conditions named. For some of these results: A result given as binding can be weak or reduced; the word gives no strength. For some of these results: Tags and fused reporters may be left off the sequences shown.
